Test results as given in PMC5031805.
These are yes or no findings as the source states them, for the method shown. In cells and extracts the contact can be indirect. Some results given as binding are weak or reduced against the parent protein; the word gives no strength. Sequences can lack the tags named with a protein.

By UniProt entry, the sequences of proteins in these tests, tags left out.
UniProt Q15691: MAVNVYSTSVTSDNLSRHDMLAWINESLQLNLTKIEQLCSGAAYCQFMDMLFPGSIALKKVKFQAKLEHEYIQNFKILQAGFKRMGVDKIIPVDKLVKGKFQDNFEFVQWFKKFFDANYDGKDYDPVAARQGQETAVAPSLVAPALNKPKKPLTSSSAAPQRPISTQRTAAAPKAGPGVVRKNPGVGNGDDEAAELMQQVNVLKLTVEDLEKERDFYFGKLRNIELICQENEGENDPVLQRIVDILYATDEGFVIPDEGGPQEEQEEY

Biological target: GFP-EB1 (UniProt Q15691)
Assay: co-IP; HeLa cell extracts, co-transfected HA-KLHL21 with GFP-EB1 or GFP; GFP-fused proteins precipitated with GFP-Trap agarose beads (legend: anti-GFP antibodies), 2 h at 4 °C, washed five times with TBS-T; immunoblot with anti-GFP and HA antibodies

B1: HA-KLHL21 (protein, UniProt Q9UJP4 1-597)
chain: MERPAPLAVLPFSDPAHALSLLRGLSQLRAERKFLDVTLEAAGGRDFPAHRAVLAAASPYFRAMFAGQLRESRAERVRLHGVPPDMLQLLLDFSYTGRVAVSGDNAEPLLRAADLLQFPAVKEACGAFLQQQLDLANCLDMQDFAEAFSCSGLASAAQRFILRHVGELGAEQLERLPLARLLRYLRDDGLCVPKEEAAYQLALRWVRADPPRRAAHWPQLLEAVRLPFVRRFYLLAHVEAEPLVARCPPCLRLLREARDFQAARYDRHDRGPCPRMRPRPSTGLAEILVLVGGCDQDCDELVTVDCYNPQTGQWRYLAEFPDHLGGGYSIVALGNDIYVTGGSDGSRLYDCVWRYNSSVNEWAEVAPMLKAREYHSSSVLDGLLYVVAADSTERYDHTTDSWEALQPMTYPMDNCSTTACRGRLYAIGSLAGKETMVMQCYDPDTDLWSLVDCGQLPPWSFAPKTATLNGLMYFVRDDSAEVDVYNPTRNEWDKIPSMNQVHVGGSLAVLGGKLYVSGGYDNTFELSDVVEAYDPETRAWSVVGRLPEPTFWHGSVSIFRQFMPQTFSGGRGFELDSGSDDMDPGRPRPPRDPDELH
With B1 the binding was “binds”.
